Record: PubChem BioAssay AID652243 (Drosophila RNAi Screening Center, 2013)
The screen tested about 24,000 reagents; shown is an unselected part of those that have a named target and a result. Over the whole deposit, 246 (1%) got an active call. 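Plates not normalised; calls are printed but the firefly/Renilla ratio behind them is not deposited; fold cut for lowering reported inconsistently.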 Raw values are not corrected between plates. Reagent sequences are not shown. The record does not give: the amount of reagent.

Purpose: 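Fly regulators of androgen-dependent reporter output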 (primary screen)
Cell system: Drosophila S2R+ cells
Reagents: long dsRNA against Drosophila genes
Timing: 72 h (48 h, then 24 h hormone)
Conditions: synthetic androgen R1881 at 10 nM for 24 h
Measured: 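Firefly light from an androgen-responsive reporter and Renilla control light per well, raw and unnormalised, for each of two replicates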
Scale: firefly reporter light: higher = more light from androgen-responsive reporter; Renilla control light: higher = more constitutive control signal (cell number, transfection)
Hit rule: 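Hit when the log firefly-to-Renilla ratio dropped or increased by a fixed fold versus the mean of GFP or LacZ controls across duplicate plates; lowering cut given as 1.5 and as 3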
Calls: active = hit: reporter lowered or raised; inactive = no hit

Pdcd4 (Programmed cell death 4) [DRSC19360]
- firefly reporter light, replicate 1: 5.37e5
- firefly reporter light, replicate 2: 4.44e5
- Renilla control light, replicate 1: 3.49e6
- Renilla control light, replicate 2: 3.82e6
- Call: inactive

spd-2 (spindle defective 2) [DRSC09682]
- firefly reporter light, replicate 1: 36479
- firefly reporter light, replicate 2: 32854
- Renilla control light, replicate 1: 3.78e5
- Renilla control light, replicate 2: 2.36e5
- Call: inactive

spd-2 (spindle defective 2) [DRSC26762]
- firefly reporter light, replicate 1: 2.73e5
- firefly reporter light, replicate 2: 2.43e5
- Renilla control light, replicate 1: 5.18e5
- Renilla control light, replicate 2: 5.40e5
- Call: inactive

pn (prune) [DRSC18822]
- firefly reporter light, replicate 1: 79847
- firefly reporter light, replicate 2: 81309
- Renilla control light, replicate 1: 5.20e5
- Renilla control light, replicate 2: 4.87e5
- Call: inactive

pn (prune) [DRSC28649]
- firefly reporter light, replicate 1: 4.35e5
- firefly reporter light, replicate 2: 4.74e5
- Renilla control light, replicate 1: 1.39e6
- Renilla control light, replicate 2: 1.57e6
- Call: inactive

CG3764 [DRSC10375]
- firefly reporter light, replicate 1: 32131
- firefly reporter light, replicate 2: 19543
- Renilla control light, replicate 1: 2.07e5
- Renilla control light, replicate 2: 2.24e5
- Call: inactive

lili (lilipod) [DRSC14143]
- firefly reporter light, replicate 1: 76362
- firefly reporter light, replicate 2: 61116
- Renilla control light, replicate 1: 6.53e5
- Renilla control light, replicate 2: 5.75e5
- Call: inactive

lili (lilipod) [DRSC29667]
- firefly reporter light, replicate 1: 3.74e5
- firefly reporter light, replicate 2: 4.60e5
- Renilla control light, replicate 1: 8.43e5
- Renilla control light, replicate 2: 8.43e5
- Call: inactive

Ziz (Zizimin) [DRSC02506]
- firefly reporter light, replicate 1: 2.23e5
- firefly reporter light, replicate 2: 2.33e5
- Renilla control light, replicate 1: 2.37e6
- Renilla control light, replicate 2: 2.23e6
- Call: inactive

Ziz (Zizimin) [DRSC02976]
- firefly reporter light, replicate 1: 2.09e5
- firefly reporter light, replicate 2: 1.39e5
- Renilla control light, replicate 1: 1.72e6
- Renilla control light, replicate 2: 1.07e6
- Call: inactive

Orct2 (Organic cation transporter 2) [DRSC14613]
- firefly reporter light, replicate 1: 29722
- firefly reporter light, replicate 2: 38953
- Renilla control light, replicate 1: 3.82e5
- Renilla control light, replicate 2: 4.91e5
- Call: inactive

Orct2 (Organic cation transporter 2) [DRSC24714]
- firefly reporter light, replicate 1: 1.08e6
- firefly reporter light, replicate 2: 1.16e6
- Renilla control light, replicate 1: 1.44e6
- Renilla control light, replicate 2: 1.46e6
- Call: inactive

Already shown: entries from further up.
Ziz (Zizimin) [DRSC02976]
- firefly reporter light, replicate 1: 2.09e5
- firefly reporter light, replicate 2: 1.39e5
- Renilla control light, replicate 1: 1.72e6
- Renilla control light, replicate 2: 1.07e6
- Call: inactive

Orct2 (Organic cation transporter 2) [DRSC14613]
- firefly reporter light, replicate 1: 29722
- firefly reporter light, replicate 2: 38953
- Renilla control light, replicate 1: 3.82e5
- Renilla control light, replicate 2: 4.91e5
- Call: inactive
